Assay results taken from patent publication US20210308188A1, “CELL CLUSTER INCLUDING OLFACTORY NEURON OR PRECURSOR CELL THEREOF, AND METHOD FOR PRODUCING SAME” (SUMITOMO CHEMICAL COMPANY, LIMITED, priority 2018, published 2021).
Some of these results come from one statement about several compounds together.

System: human iPS cells
Experiment: Study for pretreatment (step (a)) before start of differentiation induction in cell cluster production (Experiment 8)
Type: cell-based
Conditions: pretreatment in step (a): 300 nM SAG and/or 5 μM SB-431542; stably formed with high efficiency (FIG. 21H)

| Compound | quality evaluation grade of cell clusters (circumference covered with non-neural epithelial tissue part) |
| --- | --- |
| NC(=O)c1ccc(-c2nc(-c3ccc4c(c3)OCO4)c(-c3ccccn3)[nH]2)cc1 [SB-431542, 4-[4-(3,4-Methylenedioxyphenyl)-5-(2-pyridyl)-1H-imidazol-2-yl]benzamide] | Grade 1 (cell cluster in a form close to spherical, whose 80% or more of the entire circumference was covered with non-neural epithelial tissue part) |
| N-Methyl-N′-(3-pyridinylbenzyl)-N-(3-chlorobenzo[b]thiophene-2-carbonyl)-1,4-diaminocyclohexane [SAG] | Grade 1 (cell cluster in a form close to spherical, whose 80% or more of the entire circumference was covered with non-neural epithelial tissue part) |
